Patent publication US20180222982A1
Results are given in words; binding and its absence hold for the method and conditions named. Some binding calls cover weakened binding; strength is not graded here.

Protein sequences, listed by entry. Tags and fused reporters are not part of them. Residues count along the entry.
UniProt Q15116, residues 25-288: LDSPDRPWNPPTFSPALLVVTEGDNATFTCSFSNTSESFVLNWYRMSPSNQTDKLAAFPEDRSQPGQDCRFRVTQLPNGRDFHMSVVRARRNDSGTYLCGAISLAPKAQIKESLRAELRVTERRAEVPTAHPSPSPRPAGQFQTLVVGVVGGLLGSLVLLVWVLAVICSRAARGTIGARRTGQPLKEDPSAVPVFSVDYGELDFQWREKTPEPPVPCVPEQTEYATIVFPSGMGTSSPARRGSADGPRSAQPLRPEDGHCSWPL

Tests used:
[1] = target: human PD-1 expressed on cells (human) (UniProt Q15116); assay: flow cytometry competition against PD-L1-huIgG1 Fc and PD-L2-huIgG1 Fc on PD-1-expressing 300.19 cells
[2] = target: human PD-1 expressed on cells (human) (UniProt Q15116); assay: FACS competition with fluorescently labelled murine mAb BAP049 on PD-1 expressing Jurkat cells, first run
[3] = target: human PD-1 expressed on cells (human) (UniProt Q15116); assay: FACS competition with fluorescently labelled murine mAb BAP049 on PD-1 expressing Jurkat cells, second run
[4] = target: human PD-1 expressed on cells (human) (UniProt Q15116); assay: FACS blocking assay: constant PD-L2-huIgG1 Fc (PD-L2-Ig), serial dilutions of the mAb, PD-1-expressing 300.19 cells, bound ligand detected with PE anti-human IgG F(ab')2
[5] = target: human PD-1 expressed on cells (human) (UniProt Q15116); assay: FACS competition: constant Alexa 488-labelled murine mAb BAP049, serial dilutions of the test mAb, PD-1-expressing 300.19 cells, Experiment 2; x axis is the ratio conc. test mAb / conc. labelled murine mAb
[6] = target: human PD-1 expressed on cells (human) (UniProt Q15116); assay: FACS blocking assay: constant PD-L1-huIgG1 Fc (PD-L1-Ig), serial dilutions of the mAb, PD-1-expressing 300.19 cells, bound ligand detected with PE anti-human IgG F(ab')2; the legend paragraph 184 names 'PD-L1-Ig and PD-L2-Ig' for FIG. 8A
[7] = target: human PD-1 expressed on cells (human) (UniProt Q15116); assay: competition with labeled murine BAP049 on PD-1 expressing Jurkat cells
[8] = target: human PD-1 expressed on cells (human) (UniProt Q15116); assay: FACS competition: constant Alexa 488-labelled murine mAb BAP049, serial dilutions of the test mAb, PD-1-expressing 300.19 cells, Experiment 1; x axis is the ratio conc. test mAb / conc. labelled murine mAb

Measured: binding

B1: murine anti-PD-1 monoclonal antibody BAP049 (antibody, V domains shown)
VH: QVQLQQSGSELVRPGASVKLSCKASGYTFTTYWMHWVRQRPGQGLEWIGNIYPGTGGSNFDEKFKNRTSLTVDTSSTTAYMHLASLTSEDSAVYYCTRWTTGTGAYWGQGTLVTVSA
VL: DIVMTQSPSSLTVTAGEKVTMSCKSSQSLLDSGNQKNFLTWYQQKPGQPPKLLIFWASTRESGVPDRFTGSGSVTDFTLTISSVQAEDLAVYYCQNDYSYPCTFGGGTKLEIK
not listed: [7] | [8]
binds: all other assays above

B2: chimeric anti-PD-1 antibody BAP049-chi (Tyr) (antibody, human IgG4 S228P, kappa, V domains shown)
VH: QVQLQQSGSELVRPGASVKLSCKASGYTFTTYWMHWVRQRPGQGLEWIGNIYPGTGGSNFDEKFKNRTSLTVDTSSTTAYMHLASLTSEDSAVYYCTRWTTGTGAYWGQGTTVTVSS
VL: DIVMTQSPSSLTVTAGEKVTMSCKSSQSLLDSGNQKNFLTWYQQKPGQPPKLLIFWASTRESGVPDRFTGSGSVTDFTLTISSVQAEDLAVYYCQNDYSYPYTFGQGTKVEIKR
binds: all assays above

B3: chimeric anti-PD-1 antibody BAP049-chi (Ser) (antibody, human IgG4 S228P, kappa, V domains shown)
VH: QVQLQQSGSELVRPGASVKLSCKASGYTFTTYWMHWVRQRPGQGLEWIGNIYPGTGGSNFDEKFKNRTSLTVDTSSTTAYMHLASLTSEDSAVYYCTRWTTGTGAYWGQGTTVTVSS
VL: DIVMTQSPSSLTVTAGEKVTMSCKSSQSLLDSGNQKNFLTWYQQKPGQPPKLLIFWASTRESGVPDRFTGSGSVTDFTLTISSVQAEDLAVYYCQNDYSYPSTFGQGTKVEIKR
binds: [7] | [2] | [3]

B4: chimeric anti-PD-1 antibody BAP049-chi (Cys) (antibody, human IgG4 S228P, kappa, V domains shown)
VH: QVQLQQSGSELVRPGASVKLSCKASGYTFTTYWMHWVRQRPGQGLEWIGNIYPGTGGSNFDEKFKNRTSLTVDTSSTTAYMHLASLTSEDSAVYYCTRWTTGTGAYWGQGTTVTVSS
VL: DIVMTQSPSSLTVTAGEKVTMSCKSSQSLLDSGNQKNFLTWYQQKPGQPPKLLIFWASTRESGVPDRFTGSGSVTDFTLTISSVQAEDLAVYYCQNDYSYPCTFGQGTKVEIKR
binds: [7] | [2] | [3]
